Measurements taken from paper PMC7342019.
These are yes or no findings as the source states them, for the method shown. In cells and extracts the contact can be indirect. Binding calls can cover weak binding; strength is not graded here. Tags and fused reporters may be left off the sequences shown.

Molecular target: GFP-SteD (Salmonella Typhimurium)
Test: co-IP; HEK293ET cells co-transfected, lysed 24 h later in 150 mM NaCl, 50 mM Tris pH 7.4, 5 mM EDTA, 0.5% Triton X100, 5% glycerol; GFP-tagged protein precipitated with GFP-trap beads 2 h at 4°C; immunoblot with anti-GFP and anti-FLAG

B1: FLAG-TMEM127 (protein, UniProt O75204 1-238)
chain: MYAPGGAGLPGGRRRRSPGGSALPKQPERSLASALPGALSITALCTALAEPAWLHIHGGTCSRQELGVSDVLGYVHPDLLKDFCMNPQTVLLLRVIAAFCFLGILCSLSAFLLDVFGPKHPALKITRRYAFAHILTVLQCATVIGFSYWASELILAQQQQHKKYHGSQVYVTFAVSFYLVAGAGGASILATAANLLRHYPTEEEEQALELLSEMEENEPYPAEYEVINQFQPPPAYTP
  binding: binds
